From patent publication US7115576B2, “Water-soluble antibiotic comprising an amino sugar, in the form of a polysaccharide conjugate” (Fresenius Kabi Deutschland GmbH, priority 2001, dated 2006)

System: erythrocytes
Test: Haemolysis comparison test (extinction of supernatant at 576 nm)
Assay type: cell-based, human
Conditions: solution without erythrocyte suspension
Description: Of this stock solution, three dilutions were produced in accordance with Table 2 and their haemolytic action also investigated.
Production of the erythrocyte suspension: freshly taken human blood was diluted with approximately 5 times the volume of sterile 0.9% NaCl solution (batch designation: 9055A64 produced by the company Braun Melsungen) and centrifuged for 5 minutes at a relative centrifugal acceleration of 2000. The supernatant solution was then drawn off and the sedimented erythrocytes treated twice more in the same way.
The erythrocytes thus washed were counted in a Neubauer counting chamber and—where necessary—diluted again with sterile 0.9% NaCl solution to a final concentration of approx. 5·10^8 erythrocytes per ml. This suspension is according to DIN standard usable at room temperature for up to 6 hours.
Haemolysis comparison test: 5 ml of the solution to be tested was mixed with 1 ml of the above erythrocyte suspension, transferred to a cleaned centrifuge tube and incubated in a water bath at 37±1° C. for 20 minutes. Centrifuging was then performed for 5 minutes at a relative centrifugal acceleration of 2000.
The extinction of the supernatant liquid was measured. 5 ml of the 0.9% NaCl solution and the 5% glucose solution, which were mixed with 1 ml of the erythrocyte suspension, also incubated at 37±1° C. for 20 minutes and then centrifuged as above, served as negative controls.
For the test for haemolysis, the extinctions of the respective supernatants were measured in a photometer against the negative controls at a wavelength of 576 nm using a cuvette 10 mm in thickness. Owing to the differing stainings of the solutions, the extinction was also measured for the purpose of comparing the solutions without erythrocyte suspension.

Amphotericin B-HES Conjugate [Ampho HES]
Extinction 576 nm without erythrocytes (amphotericin B 0.12 mg/ml in the solution): 0.033 | Extinction 576 nm without erythrocytes (amphotericin B 0.24 mg/ml in the solution): 0.076 | Extinction 576 nm without erythrocytes (amphotericin B 0.48 mg/ml in the solution): 0.151 | Extinction 576 nm without erythrocytes (amphotericin B 1.00 mg/ml in the solution (stock solution)): 0.288
